Compounds and concentrations:
PD173074 (0.5 µM): CCN(CC)CCCCNc1ncc2cc(-c3cc(OC)cc(OC)c3)c(NC(=O)NC(C)(C)C)nc2n1
docetaxel (0.0005 µM): CC(=O)O[C@@]12CO[C@@H]1C[C@H](O)[C@@]1(C)C(=O)[C@H](O)C3=C(C)[C@@H](OC(=O)[C@H](O)[C@@H](NC(=O)OC(C)(C)C)c4ccccc4)C[C@@](O)([C@@H](OC(=O)c4ccccc4)[C@H]21)C3(C)C
fludarabine (1 µM): Nc1nc(F)nc2c1ncn2[C@@H]1O[C@H](CO)[C@@H](O)[C@@H]1O
PLX4720 (0.4 µM): CCCS(=O)(=O)Nc1ccc(F)c(C(=O)c2c[nH]c3ncc(Cl)cc23)c1F
veliparib (7 µM): C[C@]1(c2nc3c(C(N)=O)cccc3[nH]2)CCCN1
nilutamide (5 µM): CC1(C)NC(=O)N(c2ccc([N+](=O)[O-])c(C(F)(F)F)c2)C1=O
FH535 (5 µM): Cc1cc([N+](=O)[O-])ccc1NS(=O)(=O)c1cc(Cl)ccc1Cl
GSK0660 (5 µM): COC(=O)c1sccc1S(=O)(=O)Nc1ccc(Nc2ccccc2)cc1OC
erlotinib (4 µM): C#Cc1cccc(Nc2ncnc3cc(OCCOC)c(OCCOC)cc23)c1

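Human melanoma cells were exposed to two drugs together for 72 h in 1,536-well plates and read by automated microscopy after fixing and staining. Values are the share of nuclei positive for cleaved PARP as a percentage of the same share in the DMSO control: 100 is the control level, higher means more apoptosis. Concentrations were fixed for each drug; these are the higher of two levels. No replicate spread is given; individual values may be noisy. Basal and induced levels differ widely between cell lines.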 This is part of the screen, not chosen by result.

{"pair": "veliparib and PD173074", "MeWo": 35.4, "WM3619": 141, "WM1716": 70.4, "SK-MEL-30": 117}
{"pair": "veliparib and docetaxel", "MeWo": 1200, "WM3619": 219, "WM1716": 306, "SK-MEL-30": 761}
{"pair": "docetaxel and GSK0660", "MeWo": 1270, "WM3619": 179, "WM1716": 644, "SK-MEL-30": 394}
{"pair": "veliparib and GSK0660", "MeWo": 68.0, "WM3619": 139, "WM1716": 49.9, "SK-MEL-30": 81.8}
{"pair": "GSK0660 and erlotinib", "MeWo": 164, "WM3619": 117, "WM1716": 316, "SK-MEL-30": 111}
{"pair": "PLX4720 and GSK0660", "MeWo": 15.9, "WM3619": 101, "WM1716": 222, "SK-MEL-30": 148}
{"pair": "docetaxel and FH535", "MeWo": 328, "WM3619": 124, "WM1716": 376, "SK-MEL-30": 488}
{"pair": "PLX4720 and veliparib", "MeWo": 93.6, "WM3619": 148, "WM1716": 208, "SK-MEL-30": 189}
{"pair": "nilutamide and GSK0660", "MeWo": 138, "WM3619": 100, "WM1716": 33.3, "SK-MEL-30": 100}
{"pair": "veliparib and fludarabine", "MeWo": 123, "WM3619": 100, "WM1716": 56.8, "SK-MEL-30": 2000}
{"pair": "FH535 and GSK0660", "MeWo": 93.9, "WM3619": 120, "WM1716": 53.1, "SK-MEL-30": 86.1}
{"pair": "GSK0660 and fludarabine", "MeWo": 113, "WM3619": 109, "WM1716": 215, "SK-MEL-30": 792}
{"pair": "fludarabine and FH535", "MeWo": 164, "WM3619": 109, "WM1716": 152, "SK-MEL-30": 632}
{"pair": "veliparib and FH535", "MeWo": 41.2, "WM3619": 136, "WM1716": 83.6, "SK-MEL-30": 103}
{"pair": "erlotinib and PD173074", "MeWo": 102, "WM3619": 107, "WM1716": 53.8, "SK-MEL-30": 67.3}
{"pair": "nilutamide and fludarabine", "MeWo": 101, "WM3619": 88.3, "WM1716": 141, "SK-MEL-30": 1390}
{"pair": "docetaxel and PD173074", "MeWo": 736, "WM3619": 143, "WM1716": 683, "SK-MEL-30": 333}
{"pair": "veliparib and nilutamide", "MeWo": 122, "WM3619": 89.9, "WM1716": 78.5, "SK-MEL-30": 62.1}
{"pair": "fludarabine and PD173074", "MeWo": 193, "WM3619": 112, "WM1716": 137, "SK-MEL-30": 1260}
{"pair": "fludarabine and erlotinib", "MeWo": 167, "WM3619": 108, "WM1716": 70.4, "SK-MEL-30": 1400}
{"pair": "veliparib and erlotinib", "MeWo": 78.3, "WM3619": 125, "WM1716": 115, "SK-MEL-30": 200}
{"pair": "nilutamide and PLX4720", "MeWo": 55.5, "WM3619": 118, "WM1716": 109, "SK-MEL-30": 90.9}
{"pair": "nilutamide and erlotinib", "MeWo": 156, "WM3619": 109, "WM1716": 46.0, "SK-MEL-30": 60.6}
{"pair": "docetaxel and nilutamide", "MeWo": 1290, "WM3619": 111, "WM1716": 3440, "SK-MEL-30": 691}
{"pair": "FH535 and erlotinib", "MeWo": 108, "WM3619": 134, "WM1716": 166, "SK-MEL-30": 69.0}
{"pair": "docetaxel and fludarabine", "MeWo": 885, "WM3619": 203, "WM1716": 422, "SK-MEL-30": 4100}
{"pair": "PD173074 and GSK0660", "MeWo": 95.7, "WM3619": 127, "WM1716": 72.3, "SK-MEL-30": 69.2}
{"pair": "FH535 and PLX4720", "MeWo": 45.8, "WM3619": 114, "WM1716": 170, "SK-MEL-30": 59.1}
{"pair": "nilutamide and PD173074", "MeWo": 109, "WM3619": 89.6, "WM1716": 78.4, "SK-MEL-30": 54.5}
{"pair": "erlotinib and docetaxel", "MeWo": 703, "WM3619": 170, "WM1716": 335, "SK-MEL-30": 326}
{"pair": "PD173074 and PLX4720", "MeWo": 124, "WM3619": 96.8, "WM1716": 104, "SK-MEL-30": 128}
{"pair": "PLX4720 and docetaxel", "MeWo": 885, "WM3619": 233, "WM1716": 102, "SK-MEL-30": 545}
{"pair": "FH535 and PD173074", "MeWo": 50.0, "WM3619": 258, "WM1716": 59.4, "SK-MEL-30": 42.1}

Repeated from the top, 4 entries:

- veliparib and PD173074 : MeWo: 35.4; WM3619: 141; WM1716: 70.4; SK-MEL-30: 117
- veliparib and docetaxel : MeWo: 1200; WM3619: 219; WM1716: 306; SK-MEL-30: 761
- docetaxel and GSK0660 : MeWo: 1270; WM3619: 179; WM1716: 644; SK-MEL-30: 394
- veliparib and GSK0660 : MeWo: 68.0; WM3619: 139; WM1716: 49.9; SK-MEL-30: 81.8

From a melanoma drug combination screen (doi:10.1371/journal.pone.0140310); values rounded.